Some of these results come from one statement about several compounds together.
The molecules below were run on HT-22 cells (assay: Protective effect on HT-22 cell damage caused by L-glutamate monosodium salt). Details: 15 mM L-glutamate, comparison with positive control drug DMF.
Format: cell-based, mouse
Protocol: (§1) Well-proliferated HT-22 cells, derived from mouse hippocampal neuronal cells in logarithmic growth phase, were selected, and they were counted after being subjected to trypsin digestion and dispersion. The cell density was adjusted with DMEM/F12 medium (containing 10% FBS and 1% double antibody). The cells were then inoculated in a 96-well plate at a density of 2,000 cells per well, and cultured in a cell incubator at 37° C. in atmosphere containing 5% CO2 for 24 hours. For the control group and the L-glutamate monosodium salt group (model group), serum-free DMEM/F12 medium was added, and the other wells were added with tested compounds of different concentrations; except that the serum-free DMEM/F12 medium was added to the control group. L-glutamate monosodium salt solution at the final concentration of 15 mM was added to the remaining wells. After 24 hours, the cell viability was detected with a luminescent cell viability assay kit.
as §1, with “group,” for “group.”
as §1, with “2.000” for “2,000”, “group,” for “group.”

| SMILES | protection of HT22 cells against L-glutamate monosodium salt damage, in words |
| --- | --- |
| COC(=O)/C=C/c1ccccn1 [Compound I-1] | can reduce the damage of the L-glutamate monosodium salt to the HT22 cells |
| COC(=O)/C=C/c1cccnc1 [Compound I-3] | can reduce the damage of the L-glutamate monosodium salt to the HT22 cells |
| COC(=O)/C=C/c1ccncc1 [Compound I-4] | can reduce the damage of the L-glutamate monosodium salt to the HT22 cells |
| N#C/C=C/c1cccnc1 [Compound I-6] | can reduce the damage of the L-glutamate monosodium salt to the HT22 cells |
| N#C/C=C/c1ccncc1 [Compound I-7] | can reduce the damage of the L-glutamate monosodium salt to the HT22 cells |

Same assay, conditions: 15 mM L-glutamate, comparison with positive control drug DMF, listed as compound I-5

| SMILES | protection of HT22 cells against L-glutamate monosodium salt damage, in words |
| --- | --- |
| N#C/C=C/c1ccccn1 [Compound I-5] | can reduce the damage of the L-glutamate monosodium salt to the HT22 cells |
